# Out of some 320,000 compounds screened, about 22,000 (6.9%) were called active. Listed are the inconclusive results; actives and inactives stand elsewhere. The call rests on the fitted dose curve; in most records, active means well fitted inhibition curve with a large enough effect; inconclusive means small, poorly fitted or top-dose-only effect, or another doubt; inactive means no such curve, though single readings can be large or run the other way. Some tests of the compounds listed are not included; inactive here does not mean inactive elsewhere.
# Test: Primary qHTS for delayed death inhibitors of the malarial parasite plastid, 96 hour incubation
# Details: P. falciparum luciferase reporter growth
# Potency means the concentration at half of the fitted maximal effect.
row,Compound,Potency
1,COc1ccc(Br)c(C(=O)NCC2(N3CCCCC3)CCCCC2)c1,inconclusive: 18.5 µM
2,COc1cccc(C(=O)NCC2(N3CCCCC3)CCCCC2)c1,inconclusive: 18.5 µM
3,O=C(NCC1(N2CCCCC2)CCCCC1)c1cccc(Cl)c1,inconclusive: 18.5 µM
4,O=C(NCC1(N2CCCCC2)CCCCC1)c1cccc(Br)c1,inconclusive: 18.5 µM
5,CCN1CCCC(OC(=O)C2(O)c3ccccc3C=Cc3ccccc32)C1 (stereo not drawn),inconclusive: 14.7 µM
6,Cc1ccccc1C(=O)NCC1(N2CCCCC2)CCCCC1,inconclusive: 14.7 µM
7,CCCCC(CC)C(=O)N1CCN(C/C=C/c2ccccc2)CC1 (stereo not drawn),inconclusive: 8.28 µM
8,O=C(NCC1(N2CCCCC2)CCCCC1)c1cc([N+](=O)[O-])ccc1Cl,inconclusive: 13.1 µM
